Data taken from ChEMBL document CHEMBL3988442, “University of Dundee, Small-Polar-MMV Screening Library” (2021).

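Phenotypic screen: M. tuberculosis growth, cholesterol and DPPC medium, 4 days; the read-out is not stated. Tested at 50 µM. Higher reads as more growth inhibition (inferred: compounds with an IC50 in retests scored well above the rest). About 69,000 compounds were tested under these conditions; 0.54% (about 370) showed 50% or more at least once.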

Results are given as percent effect.
The record does not define 0% and 100%; most values in the screen are far below 50% and negative numbers occur (in some assays of this library far below -100).
Compounds were drawn at random from those tested, without regard to their results.
Two or more numbers in one place are separate tests of the same structure; such repeats can differ widely.

Result for Cn1ccc2c(ccn2CC(=O)Nc2ccc(Br)cc2)c1=O was 2.837%. For CC(O)CN1CCC(CN(C)Cc2ccc(C#N)cc2F)CC1 (stereo unspecified) the result was 21.13%. CC(C)Nc1nc2c(c(N(C)C)n1)CCN(C(=O)c1cc[nH]n1)CC2 read 39.71%. For CCOc1ccnc(N2CCN(C(=O)CCc3ccncc3)CC2)n1 the result was 12.74%. C[C@@H](O)CNC(=O)c1nc(CC(=O)Nc2ccccc2)no1 read 12.02%. With COc1ccc(N(C)C(=O)c2ccc(Cl)c(S(C)(=O)=O)c2)cn1 the screen gave -7.726%.

With Cc1cc(F)ccc1S(=O)(=O)N(C)CC(N)=O the screen gave -6.521% & -6.373%. COCCN(Cc1ccco1)Cc1nc(-c2ccccc2C)no1 read 12.85%. COC1CCN(CC(=O)NCc2ccc(OCC(N)=O)cc2)CC1 read 17.72%. Cc1nc(CN(C)C2CCN(CCc3cccs3)C2)no1 (stereo unspecified) read -29.48%. Result for O=C(c1ccoc1)N1CCC(O)(C(F)(F)F)CC1 was -9.974% & 8.05%. CCN1CCN(CC(O)c2ccc(OC(F)(F)F)cc2)CC1 (stereo unspecified) gave -21.21%.

CCOC(=O)N1CCC(NC(=O)Nc2cccnc2OCC)CC1 read -2.217%. With N#Cc1ccc(NCc2cccc(COC3CCOCC3)c2)nc1 the screen gave 24.48%. For [H][C@@]12CCN(S(=O)(=O)c3cccc(F)c3)C[C@]1(C(=O)NC)CCO2 the result was -23.41% & -21.84%. For O=C(O)C(F)(F)F.[H][C@@]12CCCO[C@]1([H])[C@H](NC(=O)CC1CC1)CN(Cc1cnn(C)c1)C2 the result was -26.15%. With CC(C)N(C)C(=O)C1CSCN1S(=O)(=O)c1cc(Cl)ccc1Cl (stereo unspecified) the screen gave -31.33%. CCOc1cc(CNCc2ncc[nH]2)c(Cl)cc1OC(C)C read -0.3665%.

Cc1ccc(CC(=O)N2C[C@@H](CN(C)C)[C@@H](CO)C2)cc1C gave 5.053%. Cc1nc(C)n(CC2CN(CCCc3ccccc3)CCO2)n1 (stereo unspecified) gave 10.94% & 2.797%. With O=S1(=O)c2cccnc2OC(COc2ccccc2)CN1CC1CC1 (stereo unspecified) the screen gave -5.629%. Cc1nc(N2CCOCC2)nc2c1CCN(c1nccs1)CC2 read 15.38%. CN(Cc1cccs1)C(=O)CNC1CCc2ncnn2C1 (stereo unspecified) read 14.33% & 4.962%. Result for O=C1CC(NS(=O)(=O)c2ccc3ccccc3c2)CN1 (stereo unspecified) was 10.99%.

[H][C@]12CC[C@]([H])(CN(S(=O)(=O)c3cc(-n4cccn4)ccc3C)C1)N(C)C2 gave 3.929%. With O=C(c1cnn(-c2ccccc2)n1)N1CCCC(n2cccn2)C1 (stereo unspecified) the screen gave 7.521%. For CC(Cn1cccn1)NCC(=O)NC1CCOCC1 (stereo unspecified) the result was -12.97%. Result for CCN1CCC(c2cncc(N(C)C)n2)CC1 was -24.25%. Cn1cc(NC(=O)N2CCC2c2ccccc2)ccc1=O (stereo unspecified) read 1.53%. With Cn1cc(C2CCCN2C(=O)Cn2ccc3ccccc32)cn1 (stereo unspecified) the screen gave -7.384%.

For O=C(CCc1nnc(-c2ccccc2)o1)N1CCN(CC2CC2)CC1 the result was -21.02%. CCCS(=O)(=O)NC(C)c1cccc(-n2cccn2)c1 (stereo unspecified) gave 19.55%. For Cc1noc(C)c1S(=O)(=O)NC(=O)COc1cccc(C(C)C)c1 the result was -0.9547%. For [H][C@@]12CCN(C(=O)c3cscn3)C[C@@]1([H])O[C@H](c1ccncn1)C2 the result was -18.96%. CCn1nc(C)c2nnn(CC(=O)Nc3ccccc3)c(=O)c21 read -3.154%. With COc1ccc(CN2CCCn3cnc(COC(C)C)c3C2)cc1.O=C(O)C(F)(F)F the screen gave -25.78%.

Result for Cc1cn[nH]c1C1COCCN1Cc1c[nH]cn1 (stereo unspecified) was 17.15% & -16.15%. Result for Cn1cc(C(=O)N2CCCC(c3cc(O)n(C)n3)C2)cn1 (stereo unspecified) was -6.132%. With Cc1cc(NC(=O)NC(C)(C)c2nc(C)c(C)s2)no1 the screen gave -17.89%. With Cn1ccnc1CN1CCCN(C(=O)c2ccc3cc[nH]c3c2)CC1 the screen gave 1.568%. O=C1NCC2=C1C(c1ccc(O)cc1)Nc1ccccc1N2 (stereo unspecified) read -2.218%. With O=C(c1cnc(-c2ccco2)s1)N1CCCC1Cn1cccn1 (stereo unspecified) the screen gave 8.681%.

With Cc1ccc(C(=O)N2CCc3nc4c(C)csc4c(=O)n3CC2)cn1 the screen gave 1.079%. O=C(O)C(F)(F)F.O=C(O)C(F)(F)F.[H][C@]12C[C@@H](CN(C)C)N(C(C)=O)[C@@]1([H])CCN(c1ncc(F)cn1)C2 read 7.072%. CCS(=O)(=O)c1ncc(CN(C)Cc2ccccc2Cl)n1CCOC read 0.1439% & 8.665%. CN(CCn1cccn1)c1cc(C(F)(F)F)nc(-c2cccnc2)n1 read -13.88%. Result for CC(C)NC(=O)Nc1ccc(CS(=O)(=O)C(C)(C)C)cc1 was -7.352%. Cl.N#Cc1cccnc1OC1CCNCC1 gave -39.31%.

Result for Cc1cn2c(CN(C)C(=O)c3cnc(N)c(Cl)c3)c(C)nc2s1 was -19.88%. [H][C@@]12CN(C(=O)C3CCOC3)C[C@@]1([H])N(CC(C)C)C(=O)CO2 (stereo partly specified) gave -45.04%. Result for CCn1cc(CN(C)C(=O)c2cc(C(F)(F)F)n(C)n2)cn1 was 1.166%. O=C(O)c1ccccc1-n1cnc(CN2CCc3ccccc3C2)c1 read -23.03%. Result for CCn1ncc2c(C(F)F)cc(-c3ccn(C)n3)nc21 was 1.845%. For CCc1cnc(C)nc1N(C)CCCc1cnn(C)c1 the result was -0.7614%.

CS(=O)(=O)NCC1CCCCN1C(=O)c1ccsc1 (stereo unspecified) read 3.607%. O=C(CN1CCc2cncnc2C1)NCCOc1cccc(Cl)c1 gave 1.922%. With CN1CCN(c2nc(O)c3c(-c4ccccn4)ccnc3n2)CC1 the screen gave -7.3%. Result for Cn1nc(C(=O)N2CCSCC2)cc1NC(=O)c1ccco1 was -12.72%. For C[C@@H]1CN(c2ccc3c(Cl)ccnc3c2F)CC(C(N)=O)O1 (stereo partly specified) the result was -2.799%.

Repeated from the top, 7 entries:

{"smiles": "Cn1ccc2c(ccn2CC(=O)Nc2ccc(Br)cc2)c1=O", "effect": 2.837}
{"smiles": "CC(O)CN1CCC(CN(C)Cc2ccc(C#N)cc2F)CC1", "stereo": "stereo unspecified", "effect": 21.13}
{"smiles": "CC(C)Nc1nc2c(c(N(C)C)n1)CCN(C(=O)c1cc[nH]n1)CC2", "effect": 39.71}
{"smiles": "CCOc1ccnc(N2CCN(C(=O)CCc3ccncc3)CC2)n1", "effect": 12.74}
{"smiles": "C[C@@H](O)CNC(=O)c1nc(CC(=O)Nc2ccccc2)no1", "effect": 12.02}
{"smiles": "COc1ccc(N(C)C(=O)c2ccc(Cl)c(S(C)(=O)=O)c2)cn1", "effect": -7.726}
{"smiles": "Cc1cc(F)ccc1S(=O)(=O)N(C)CC(N)=O", "effect": "-6.521 & -6.373"}